Reference: publication PMC3795721

Protein sequences, listed by entry. Tags and fused reporters are not part of them. Residues count along the entry.
UniProt Q8S8P5, 356-421: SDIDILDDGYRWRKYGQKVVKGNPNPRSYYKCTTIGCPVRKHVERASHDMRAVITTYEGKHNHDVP

What follows are sequences tested against AtWRKY33 cDBD (Arabidopsis thaliana) (UniProt Q8S8P5) (assay: DPI-ELISA). Conditions: threshold >1.9, protein block assigned from GACY motif; DPI-ELISA on streptavidin plates with biotinylated dsDNA (1 pmol in Figure S1, 2 pmol in Figure 1 legend) and crude E. coli extract; anti-His detection; recombinant protein; protein details: C-terminal His (pET-DEST42); label: 5' biotin on forward strand.

| Sequence | binding signal (relative normalized absorbance) |
| --- | --- |
| AAAAAAAGTCTGCGGCTGCAGGGCGGAAAA (double strand) [library probe 92] | 2.36 |
| AAAAAAGTCTAAGGACTTATAGCTGTAAAA (double strand) [library probe 101] | 2.37 |
| AAAAAAGGCGGTCGTAGTTGTGGGAGAAAA (double strand) [library probe 222] | 2.35 |
| AAAAAAGGCGTCTGACTGTAACTCGTAAAA (double strand) [library probe 108] | 2.35 |
| AAAAAAGTCCGCCCTTAATTCATATTAAAA (double strand) [library probe 54] | 2.35 |

Same assay, conditions: threshold >1.9, protein block assigned from motif; DPI-ELISA on streptavidin plates with biotinylated dsDNA (1 pmol in Figure S1, 2 pmol in Figure 1 legend) and crude E. coli extract; anti-His detection; recombinant protein; protein details: C-terminal His (pET-DEST42); label: 5' biotin on forward strand

| Sequence | binding signal (relative normalized absorbance) |
| --- | --- |
| AAAAAACATCGCTGTCGTTGACGTTGAAAA (double strand) [library probe 276] | 2.34 |

The exact form of at least one protein or probe is not confirmed. Whether high values mean tight binding is not given here for every scale.
